The record followed here is PubChem BioAssay AID1487 (National Center for Advancing Translational Sciences (NCATS), 2009).

“And” between values parts separate entries of the source, which are not always exact repeats. Equal values may be shown once. The list shows a part of the results. The main result of the screen is listed elsewhere. These columns were measured beside it and carry no call. Compounds called inactive in the main read-out are mostly missing here. The note in brackets gives the kind of curve behind each potency; many fits are weak.

This assay in a line: qHTS Assay for Modulators of Lamin A Splicing. The conditions noted are these: HeLa LMNA splicing GFP/RFP minigene ratio, 48 h. The method in brief: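 S3 HeLa cells stably expressing lamin A-EGFP splicing minigene plus DsRed2, 600 cells/well, 48 h compound exposure at 37C. Laser-scanning cytometry; analysed as GFP (500-530 nm)/RFP (575-640 nm) total intensity ratio; 0.5% DMSO vehicle.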
For orientation: In qHTS, concentration-response curves come from the screen itself.

Setting [1] is: measured here: GFP splicing reporter channel.
Setting [2] is: measured here: RFP viability control channel.

Usually AC50 stands for the concentration giving half of the maximal activity seen. Consider `C=CCN1C(=O)NC(=O)C(CCc2ccncc2)(CCc2ccncc2)C1=O`, for which the AC50 runs as follows: under setting [1], 0.794 µM [falling, full curve, poor fit]; under setting [2], 0.00355 µM [falling, full curve, poor fit].

On to `C=C1[C@@H](C)[C@H]2[C@H](Cc3ccccc3)NC(=O)[C@]23OC(=O)/C=C/[C@H](O)CCC[C@@H](C)C/C=C/[C@H]3[C@@H]1O`, for which the AC50 under setting [2] is 0.631 µM [falling, full curve, poor fit].

Consider `O=C(O)C1C2CCC(O2)C1C(=O)O` (stereo unspecified), for which the AC50 is 0.0891 µM [falling, full curve, poor fit] under setting [1] and 35.5 µM [falling, single point] under setting [2].

As for `COC(=O)COc1cc(Cl)c(Cl)cc1Cl`, the concentration at half-maximal activity (AC50) by setting is: under setting [1], 11.2 µM [falling, partial curve, poor fit]; under setting [2], 20 µM [falling, partial curve].

In the case of `CCOC(=O)c1c(NC(NC(=O)CF)C(Cl)(Cl)Cl)sc2c1CCCC2` (stereo unspecified), the AC50 by setting is: under setting [1], 35.5 µM [rising, single point]; under setting [2], 35.5 µM [rising, single point].

Consider `C=CCn1c(O)c(/C=C2/C=CC=N2)c(=O)[nH]c1=O`, for which the concentration at half-maximal activity (AC50) under setting [2] was 22.4 µM [rising, single point].

Take `O=C(Oc1ccc2cc(Br)ccc2c1)N1CCCCCC1`: the concentration at half-maximal activity (AC50) under setting [1] is 20 µM [rising, partial curve] and the AC50 under setting [2] was 35.5 µM [rising, single point].

Consider `CC1(C)CSC(Nc2ccc(F)c(Cl)c2)=N1`, for which the AC50 is 5.01 µM [rising, partial curve] under setting [1] and 22.4 µM [rising, single point] under setting [2].

On to `Cc1c(Cl)c(=O)oc2cc(OP(=O)(OCCCl)OCCCl)ccc12`, for which the AC50 under setting [1] was 0.01 µM [falling, full curve, poor fit] and the AC50 under setting [2] was 35.5 µM [rising, single point].

As for `Cc1cccc(C)c1NC(=O)CN(C)CC(=O)Nc1ccc(C#N)c(Cl)c1`, the AC50 under setting [1] is 1.78 µM [rising, partial curve, poor fit] and the half-maximal activity concentration (AC50) under setting [2] was 11.2 µM [rising, partial curve].

Take `Cc1cc(C)cc(N2C(=O)NC(=O)/C(=C\C=C\c3ccco3)C2=O)c1`: the AC50 by setting is: under setting [1], 12.6 µM [rising, single point]; under setting [2], 15.8 µM [rising, partial curve].

`CCN1C(=O)c2ccccc2Sc2ccc(NC(=O)Nc3ccc(Br)c(C)c3)cc21`: the concentration at half-maximal activity (AC50) under setting [2] was 5.62 µM [rising, partial curve].

Take `COc1ccc(Oc2cc(NC(=O)c3nn(C)cc3[N+](=O)[O-])cc([N+](=O)[O-])c2)cc1`: the AC50 is 14.1 µM [falling, partial curve] under setting [1] and 15.8 µM [falling, single point] under setting [2].

For `O=C1C(c2ccccc2)=C(N2CC2)c2ccccc21`, the half-maximal activity concentration (AC50) is 11.2 µM [rising, partial curve] under setting [1] and 15.8 µM [rising, partial curve] under setting [2].

For the compound `Oc1ccc2c3c1O[C@H]1[C@@H](O)CC[C@]4(O)[C@H](C2)N(CC2CCC2)CC[C@@]314`, the AC50 reads like this: under setting [1], 7.94 µM [falling, partial curve]; under setting [2], 14.1 µM [falling, single point].

Consider `CCCNS(=O)(=O)c1ccc(OCC(=O)N2CCN(Cc3ccc4c(c3)OCO4)CC2)cc1`, for which the AC50 by setting is: under setting [1], 3.16 µM [rising, full curve]; under setting [2], 10 µM [rising, partial curve].

`NC(N)=NN=Cc1c(Cl)cccc1Cl`: the AC50 under setting [1] is 0.2 µM [falling, partial curve, poor fit] and the AC50 under setting [2] was 0.355 µM [falling, single point].

In the case of `CC(C)CN(C(=O)CN1CC=C(c2ccccc2)CC1)c1c(N)n(CC(C)C)c(=O)[nH]c1=O`, the half-maximal activity concentration (AC50) under setting [2] is 0.0501 µM [falling, full curve].

As for `O=C1CN=C(c2ccccc2)c2cc([N+](=O)[O-])ccc2N1`, the AC50 under setting [2] is 3.55 µM [falling, single point].

Regarding `Cc1ccc(S(=O)(=O)N[C@@H](CCCCN)C(=O)CCl)cc1`, the concentration at half-maximal activity (AC50) under setting [1] was 25.1 µM [falling, single point] and the concentration at half-maximal activity (AC50) under setting [2] was 0.0316 µM [rising, full curve].

For `C[C@]12CCC(=O)C=C1CCc1ccc(O)cc12`, the concentration at half-maximal activity (AC50) by setting is: under setting [1], 12.6 µM [rising, partial curve]; under setting [2], 11.2 µM [rising, partial curve].

As for `Nc1ccc(N)cc1`, the AC50 under setting [1] was 10 µM [rising, partial curve, poor fit].

Regarding `O=C(Nc1ccccc1)N(Cc1ccc2c(c1)OCO2)C1CCN(Cc2ccccc2)CC1`, under setting [2], the concentration at half-maximal activity (AC50) was 0.0224 µM [rising, full curve, poor fit].

On to `CCc1ccccc1N1C(=O)CC(=O)NC1=O`, for which the AC50 under setting [2] is 6.31 µM [falling, single point].

On to `Cc1cccc(C)c1NC1=NCCCS1`, for which the concentration at half-maximal activity (AC50) is, setting by setting: under setting [1], 398 nM [falling, partial curve] and 0.794 nM [falling, full curve, poor fit]; under setting [2], 35.5 µM [falling, single point] and 1.12 nM [falling, full curve, poor fit].

With `COc1ccc(CC2(CCc3ccncc3)C(=O)NC(=O)NC2=O)cc1`, the AC50 by setting is: under setting [1], 3.55 µM [falling, full curve]; under setting [2], 2 µM [falling, full curve].

On to `C[C@]12CC[C@@H]3c4ccc(O)cc4[C@@H](O)C[C@H]3[C@@H]1CC[C@@H]2O`, for which the concentration at half-maximal activity (AC50) under setting [2] was 35.5 µM [rising, single point].

As for `CCNC(=O)[C@H]1O[C@@H](n2cnc3c(N)ncnc32)[C@H](O)[C@@H]1O`, the AC50 under setting [1] was 0.02 µM [rising, full curve, poor fit].

Consider `COc1cccc(NP(=O)(Oc2ccc(Cl)cc2)Oc2ccc(Cl)cc2)c1`, for which the AC50 under setting [2] is 10 µM [rising, partial curve, poor fit].

In the case of `COc1ccc(N2C(=O)NC(=O)/C(=C/c3cccc(OC(=O)c4cccs4)c3)C2=O)cc1Cl`, under setting [2], the half-maximal activity concentration (AC50) is 5.62 µM [rising, single point].

In the case of `C[C@@H]1O[C@@H](O[C@H]2C[C@@H](O)[C@]3(CO)[C@@H]4C(CC[C@]3(O)C2)[C@@]2(O)CC[C@H](C3=CC(=O)OC3)[C@@]2(C)C[C@H]4O)[C@H](O)[C@H](O)[C@H]1O` (stereo partly specified), the AC50 is, setting by setting: under setting [1], 1 µM [falling, full curve]; under setting [2], 0.224 µM [falling, full curve].

Turning to `CC1CN(c2cc([N+](=O)[O-])ccc2Cl)CC(C)N1` (stereo unspecified), the AC50 under setting [1] was 0.00794 µM [rising, full curve, poor fit].

With `CC(=O)[C@@]1(O)CC[C@H]2C3CCC4=CC(=O)CC[C@]4(C)C3CC[C@@]21C` (stereo partly specified), the AC50 by setting is: under setting [1], 5.62 µM [falling, partial curve, poor fit]; under setting [2], 5.62 µM [falling, single point].

As for `CC(N=Cc1c(O)[nH]c(=O)[nH]c1=O)c1ccccc1` (stereo unspecified), the AC50 under setting [1] is 6.31 µM [rising, single point].

As for `CCCCn1c(O)c(C(CC)=Nc2ccc(OC)cc2OC)c(=O)[nH]c1=O`, under setting [2], the AC50 was 35.5 µM [falling, single point].

Consider `O=C(O)C12C3CCCC1C32c1ccccc1` (stereo unspecified), for which the half-maximal activity concentration (AC50) under setting [2] is 0.0398 µM [falling, full curve, poor fit].

For the compound `COC(C(=O)C(O)C(C)O)C1Cc2cc3cc(OC4CC(OC5CC(O)C(OC)C(C)O5)C(OC(C)=O)C(C)O4)c(C)c(O)c3c(O)c2C(=O)C1OC1CC(OC2CC(OC3CC(C)(O)C(OC(C)=O)C(C)O3)C(O)C(C)O2)C(O)C(C)O1` (stereo unspecified), the concentration at half-maximal activity (AC50) is 0.0631 µM [falling, full curve] under setting [1] and 0.224 µM [falling, full curve] under setting [2].

Consider `O=P1(NCCCl)OCCCN1CCCl` (stereo unspecified), for which the AC50 under setting [1] was 7.94 µM [falling, partial curve, poor fit] and the concentration at half-maximal activity (AC50) under setting [2] is 0.0562 µM [falling, full curve, poor fit].

For `O=C1NC(=O)C(CCc2ccccn2)(Cc2cccc(Cl)c2Cl)C(=O)N1c1ccc(Br)cc1` (stereo unspecified), the half-maximal activity concentration (AC50) under setting [2] was 20 µM [rising, single point].

On to `O=C1NC(=O)C2(Cc3ccccc3N3CCCC32)C(=O)N1c1ccc(Cl)cc1` (stereo unspecified), for which, under setting [1], the AC50 is 35.5 µM [falling, partial curve, poor fit].

Consider `Cc1cccc(-n2c(O)c(C)c(=O)[nH]c2=S)c1`, for which the AC50 is, setting by setting: under setting [1], 1.58 µM [falling, full curve]; under setting [2], 1.41 µM [falling, full curve, poor fit].

Turning to `CC(=O)OC(CC(=O)O)C[N+](C)(C)C` (stereo unspecified), the AC50 is, setting by setting: under setting [1], 14.1 µM [rising, partial curve, poor fit]; under setting [2], 15.8 µM [rising, single point].

For the compound `Cc1ccc(Cn2cccc(C(=O)Nc3nc4ccc(C)cc4s3)c2=O)cc1`, the half-maximal activity concentration (AC50) under setting [2] is 3.55 µM [falling, partial curve, poor fit].

Regarding `CCCCCCCCCCCCCCCC(=O)OC(C)C`, the AC50 is, setting by setting: under setting [1], 0.0398 µM [falling, full curve, poor fit]; under setting [2], 25.1 µM [falling, single point].

For the compound `C/C(=N\N1CCCCCC1)c1c(O)n(-c2ccccc2)c(=O)[nH]c1=O`, the half-maximal activity concentration (AC50) under setting [2] is 17.8 µM [rising, single point].

In the case of `CCOc1ccc2c(c1)c(C(C)=O)c(C)n2Cc1ccco1`, the AC50 under setting [2] is 0.00398 µM [falling, full curve, poor fit].

Regarding `O=c1[nH]c(=O)n(Cl)c(=O)n1Cl`, the AC50 under setting [1] is 35.5 µM [falling, single point].

Turning to `C=C(C)[C@H]1CC[C@]2(C(=O)O)CC[C@]3(C)[C@@H](CC[C@H]4[C@@]5(C)CC[C@@H](O)C(C)(C)[C@@H]5CC[C@@]43C)[C@H]12`, the concentration at half-maximal activity (AC50) was 4.47 µM [falling, partial curve] under setting [1] and 5.01 µM [falling, partial curve] under setting [2].

For the compound `CCN1C[C@]2(C)CC[C@H](O)[C@@]34[C@@H]5CC6[C@@H](OC)C[C@@](O)([C@@H]5[C@@H]6O)[C@H](C[C@@H]23)[C@H]14`, the AC50 under setting [1] is 3.16 µM [falling, single point] and the AC50 under setting [2] was 3.16 µM [falling, single point].
